Test results taken from article PMC8789064, “High-Throughput-Methyl-Reading (HTMR) assay: a solution based on nucleotide methyl-binding proteins enables large-scale screening for DNA/RNA methyltransferases and demethylases” (Nucleic Acids Research, 2021).
For some of these results: No signal at the amounts used counts as a negative. At least one verdict was read from the data and is not stated in words by the source. For at least one entry, the source does not settle the construct or the ends of the probe. For some of these results: A weaker result is weaker than the reference pair of the same experiment. For some of these results: Where a protein sequence is shown, tags need not be part of it.

Protein sequences, listed by entry. Tags and fused reporters are not part of them. Residues count along the entry.
UniProt Q6P6C2, 66-292: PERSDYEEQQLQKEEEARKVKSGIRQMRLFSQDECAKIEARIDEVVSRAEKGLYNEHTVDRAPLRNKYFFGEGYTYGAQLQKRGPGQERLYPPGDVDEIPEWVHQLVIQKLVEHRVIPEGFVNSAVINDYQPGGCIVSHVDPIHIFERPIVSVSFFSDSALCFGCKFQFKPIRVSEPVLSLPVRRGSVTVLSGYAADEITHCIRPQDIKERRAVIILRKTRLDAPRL
UniProt P26358, 351-1600: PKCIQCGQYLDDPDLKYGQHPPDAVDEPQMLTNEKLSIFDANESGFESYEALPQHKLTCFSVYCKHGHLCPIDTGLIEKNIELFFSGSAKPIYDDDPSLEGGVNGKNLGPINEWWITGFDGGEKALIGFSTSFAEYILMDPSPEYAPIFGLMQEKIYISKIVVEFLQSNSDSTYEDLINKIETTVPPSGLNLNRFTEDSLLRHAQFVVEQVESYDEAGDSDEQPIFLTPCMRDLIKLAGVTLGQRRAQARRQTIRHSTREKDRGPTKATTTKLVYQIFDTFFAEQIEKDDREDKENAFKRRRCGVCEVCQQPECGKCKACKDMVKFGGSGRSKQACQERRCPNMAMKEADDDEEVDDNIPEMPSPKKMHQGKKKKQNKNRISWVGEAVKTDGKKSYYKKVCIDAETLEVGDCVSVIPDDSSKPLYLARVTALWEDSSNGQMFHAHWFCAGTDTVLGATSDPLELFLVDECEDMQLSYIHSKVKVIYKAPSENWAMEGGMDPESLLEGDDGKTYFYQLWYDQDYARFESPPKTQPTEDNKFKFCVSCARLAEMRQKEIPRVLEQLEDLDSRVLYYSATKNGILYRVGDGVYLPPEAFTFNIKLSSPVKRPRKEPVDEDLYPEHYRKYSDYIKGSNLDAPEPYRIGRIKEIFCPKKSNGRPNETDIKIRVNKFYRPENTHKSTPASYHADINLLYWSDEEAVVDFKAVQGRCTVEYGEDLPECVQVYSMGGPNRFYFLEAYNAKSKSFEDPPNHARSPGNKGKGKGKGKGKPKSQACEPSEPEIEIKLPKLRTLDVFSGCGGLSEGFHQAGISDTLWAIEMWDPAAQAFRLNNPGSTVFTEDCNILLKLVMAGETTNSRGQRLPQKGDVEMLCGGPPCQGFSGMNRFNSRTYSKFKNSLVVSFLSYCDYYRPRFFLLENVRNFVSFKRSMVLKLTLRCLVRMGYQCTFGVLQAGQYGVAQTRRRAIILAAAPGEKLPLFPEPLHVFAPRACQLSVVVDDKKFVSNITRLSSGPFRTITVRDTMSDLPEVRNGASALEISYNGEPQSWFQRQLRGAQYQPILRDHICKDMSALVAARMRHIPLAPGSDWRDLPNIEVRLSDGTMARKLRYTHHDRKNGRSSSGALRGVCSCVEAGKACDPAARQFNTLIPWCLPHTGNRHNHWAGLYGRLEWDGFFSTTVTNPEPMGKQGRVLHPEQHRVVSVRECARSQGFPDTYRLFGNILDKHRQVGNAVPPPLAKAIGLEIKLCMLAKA

How the values were obtained:
Assay in all cases: fluorescence polarization
ALKBH5 catalytic domain = ALKBH5 catalytic domain (UniProt Q6P6C2); details: high-NaCl buffer, very weak signal, FP, 384-well, methyl readers at final NaCl 400 mM (DNMT1 assay), 300 mM (TET2), 250 mM (METTL3/14, ALKBH5), 10-15 min, DNMT1 and METTL3/14 binding in 20 mM HEPES pH 7.4, recombinant protein, residues 66-292, protein details: pET28a, label: 5'-FAM
METTL3 + METTL14 = details: FP, 384-well, methyl readers at final NaCl 400 mM (DNMT1 assay), 300 mM (TET2), 250 mM (METTL3/14, ALKBH5), 10-15 min, DNMT1 and METTL3/14 binding in 20 mM HEPES pH 7.4, recombinant protein, label: 5'-FAM
DNMT1 (351-1600) (human) = DNMT1 (351-1600) (human) (UniProt P26358); details: FP, 384-well, methyl readers at final NaCl 400 mM (DNMT1 assay), 300 mM (TET2), 250 mM (METTL3/14, ALKBH5), 10-15 min, DNMT1 and METTL3/14 binding in 20 mM HEPES pH 7.4, recombinant protein, residues 351-1600, protein details: N-terminal 6xHis, TEV site, label: 5'-FAM top …
MBD1 (1-105) = target: T1, MBD1 (1-105) (UniProt Q9UIS9); details: preference for methylated DNA at 150 mM NaCl or above, judged insufficient for assay; 5mC at position 3 of top strand and position 9 of bottom strand; FP, 384-well; methyl readers at final NaCl 400 mM (DNMT1 assay), 300 mM (TET2), 250 mM (METTL3/14, ALKBH5), 10-15 min; DNMT1 and METTL3/14 binding in 20 mM HEPES pH 7.4; recombinant protein; residues 1-105; protein details: untagged; label: 5'-FAM top strand
T1 sequence (looked up): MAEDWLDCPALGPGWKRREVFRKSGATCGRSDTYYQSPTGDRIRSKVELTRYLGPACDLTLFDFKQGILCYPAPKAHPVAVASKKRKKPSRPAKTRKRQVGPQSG

GAACCGGACUGUCUUA [m6A-modified RNA]
binding result (ALKBH5 catalytic domain; m6A at position 8): binds more weakly
binding result (METTL3 + METTL14; 0 mM NaCl, m6A at position 8): binds
binding result (METTL3 + METTL14; 150 mM NaCl or higher, virtually no binding, m6A at position 8): no binding

GAACCGGACUGUCUUA [unmodified RNA]
binding result (ALKBH5 catalytic domain): binds more weakly
binding result (METTL3 + METTL14; 0 mM NaCl): binds
binding result (METTL3 + METTL14; 150 mM NaCl or higher, virtually no binding): no binding

TACGACCAGGAT (double strand) [fully-methylated DNA [M/M]]
binding result (DNMT1 (351-1600) (human); 0 mM NaCl, 5mC at position 3 of top strand and position 9 of bottom strand): binds
binding result (DNMT1 (351-1600) (human); 150 mM NaCl, virtually no binding, 5mC at position 3 of top strand and position 9 of bottom strand): no binding
binding result (DNMT1 (351-1600) (human); 400 mM NaCl, virtually no binding, 5mC at position 3 of top strand and position 9 of bottom strand): no binding
binding result (MBD1 (1-105)): binds

TACGACCAGGAT (double strand) [hemi-methylated DNA [M/C]]
binding result (DNMT1 (351-1600) (human); 0 mM NaCl, 5mC at position 3 of top strand): binds
binding result (DNMT1 (351-1600) (human); 150 mM NaCl, virtually no binding, 5mC at position 3 of top strand): no binding
binding result (DNMT1 (351-1600) (human); 400 mM NaCl, virtually no binding, 5mC at position 3 of top strand): no binding
